Our source for the binding values is publication PMC4551915, “Bacteriophage GIL01 gp7 interacts with host LexA repressor to enhance DNA binding and inhibit RecA-mediated auto-cleavage” (Nucleic Acids Research, 2015).

For this test, the target named is T1, His6-LexA (Bacillus thuringiensis LexA repressor) (B. thuringiensis) (UniProt A0RH75).
T1 sequence: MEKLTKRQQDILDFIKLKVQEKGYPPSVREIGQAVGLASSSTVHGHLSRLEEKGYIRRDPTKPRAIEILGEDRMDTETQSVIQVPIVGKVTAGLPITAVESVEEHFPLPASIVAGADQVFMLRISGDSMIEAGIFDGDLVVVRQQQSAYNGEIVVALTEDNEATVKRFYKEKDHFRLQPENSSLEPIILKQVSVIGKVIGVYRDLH
In words: native gel or EMSA; His6-LexA (8 nM) and His6-gp7 (340 nM) with 5' 32P-labelled P1 promoter DNA probes (-25 to +176; wild type, dinBox1 mutant, dinBox1b mutant); 80 mM NaCl, 25 mM Tris pH 7.5, 5 mM EDTA, 2 mM DTT, 0.1 mg/ml BSA, poly(dI-dC); 30 min at room temperature; native 6% polyacrylamide gel; supershift of the LexA-DNA complex; both purified.

These are yes or no findings as the source states them, for the method shown. A result given as binding can be weak or reduced; the word gives no strength. Where a sequence is shown, tags or fusion partners need not be part of it.

On to “His6-gp7 (bacteriophage GIL01 gp7, product of ORF7)”, for which the binding result is recorded as “binds”.
